According to the supplement of paper PMC12067093, “Discovery and optimisation of a covalent ligand for TRIM25 and its application to targeted protein ubiquitination” (Chemical Science, 2025):
The list shows a part of the results.

Compound: Cc1cc(ccc1-c1ccccc1)C(=O)N1CCCN(CC1)C(=O)CCl [compound 10]
Test: probe-labelled cysteine peptide fold change vs DMSO (competition) (log2 fold change); higher = less target engagement (more negative = stronger competition)
Conditions: THP-1, incubation time: 4 h
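Further: competitive profiling in live THP-1 cells: cysteine peptides tagged with an iodoacetamide desthiobiotin (IA-DTB) probe, intensity after compound treatment relative to DMSO-treated cells.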

Target | probe-labelled cysteine peptide fold change (10 µM) | probe-labelled cysteine peptide fold change (50 µM)
ATXN10_Q9UBB4_95_NACIECSVNQNSIR (UniProt Q9UBB4) | 0.233 | 0.166
BABAM2_Q9NXR7_245+254_IEHALGGSSALHIPAFPGGGCLIDYVPQVCHLLTNK (UniProt Q9NXR7) | 0.00719 | 0.273
BICD2_Q8TD16_544_KVSDVAGETQGSLSVAQDELVTFSEELANLYHHVCMCNNETPNR (UniProt Q8TD16) | -0.109 | -0.708
BAZ1B_Q9UIG0_1393+1395_CSCGSYR (UniProt Q9UIG0) | 0.00371 | -0.426
BAZ1A_Q9NRL2_586_RGGFDATDDACMELR (UniProt Q9NRL2) | -0.0388 | -0.0751
BAHD1_Q8TBE0_764_TVPEDTDPELVFLCR (UniProt Q8TBE0) | -0.118 | -0.251
BIRC2_Q13490_110_QLYPSCSFIQNLVSASLGSTSK (UniProt Q13490) | -0.0674 | -0.211
BIRC6_Q9NR09_1293_GCDLLQEVSVTIR (UniProt Q9NR09) | 0.191 | 0.51
AVEN_Q9NQS1_251_SVAAGCPVLLGK (UniProt Q9NQS1) | -0.0473 | -0.58
BCOR_Q6W2J9_1080_SVTLEEAIAEQNESERCEYSVGNK (UniProt Q6W2J9) | -0.297 | -0.343
BABAM2_Q9NXR7_34_VGLDATNCLR (UniProt Q9NXR7) | -0.0698 | -0.19
BOD1L1_Q8NFC6_285_SEEFSDLPCPVEEIK (UniProt Q8NFC6) | -0.0744 | 0.138
BOP1_Q14137_690_YPLFASGSDDGSVIVCHGMVYNDLLQNPLLVPVK (UniProt Q14137) | 0.16 | -0.0619
BCAT1_P54687_293_CILDLAHQWGEFK (UniProt P54687) | 0.0141 | -0.125
ATXN10_Q9UBB4_65_SSHAVELACR (UniProt Q9UBB4) | 0.0331 | 0.385
BAG5_Q9UL15_191_INFVMCEVNK (UniProt Q9UL15) | -0.0455 | -0.226
BACH1_O14867_557_LTPEQLDCIHDIR (UniProt O14867) | -0.28 | -0.134
B4GALT3_O60512_119_YRPAGCEPR (UniProt O60512) | -0.0822 | 0.0489
BLM_P54132_318_CLSTLK (UniProt P54132) | -0.0405 | -0.0942
BIRC6_Q9NR09_1183_LCPFLEDHKEDILCGPVWLASGLDLSGHAGMLTLTSPK (UniProt Q9NR09) | 0.109 | -0.00448
BIRC6_Q9NR09_543_DLEELGANPCLTNSK (UniProt Q9NR09) | -0.334 | -0.207
BCL10_O95999_57_ILSREDTEEISCR (UniProt O95999) | -0.0733 | -0.324
BIRC6_Q9NR09_62_DGCMHCDADGLHSLSYHPALNAILAVTSR (UniProt Q9NR09) | 0.0345 | -0.0517
BAZ1A_Q9NRL2_547_SLDLDSCTLSEILR (UniProt Q9NRL2) | -0.00968 | 0.0572
BIRC6_Q9NR09_3108_AFHDMGGVQLICNNMVTSTR (UniProt Q9NR09) | -0.156 | 0.211
BPTF_Q12830_2697_MIVCNQVMK (UniProt Q12830) | 0.0771 | -0.18
BMI1_P35226_166_CPAAMTVMHLR (UniProt P35226) | -0.0668 | 0.04
BRAP_Q7Z569_519_ETCDQK (UniProt Q7Z569) | -0.0471 | -0.166

Pulled one by one from above, two records:
Target | probe-labelled cysteine peptide fold change (10 µM) | probe-labelled cysteine peptide fold change (50 µM)
BCAT1_P54687_293_CILDLAHQWGEFK (UniProt P54687) | 0.0141 | -0.125
BIRC6_Q9NR09_1293_GCDLLQEVSVTIR (UniProt Q9NR09) | 0.191 | 0.51

(list continues)

Target | probe-labelled cysteine peptide fold change (10 µM) | probe-labelled cysteine peptide fold change (50 µM)
BOP1_Q14137_108_KTTEEQVQASTPCPR (UniProt Q14137) | -0.0259 | -0.571
BCL10_O95999_57_EDTEEISCR (UniProt O95999) | 0.0353 | 0.0524
ATXN10_Q9UBB4_92_NACIECSVNQNSIR (UniProt Q9UBB4) | 0.126 | 0.196
BRAT1_Q6PJG6_265_DPIPAAHSFVDLLLCVAR (UniProt Q6PJG6) | 0.07 | -0.312
BAZ2A_Q9UIF9_1802_NHHSDLTFCEIILMEMESHDAAWPFLEPVNPR (UniProt Q9UIF9) | -0.0363 | -0.652
BOD1L1_Q8NFC6_1170_TCTADSK (UniProt Q8NFC6) | -0.153 | -0.337
BABAM1_Q9NWV8_222_TILVYSRPPCQPQFSLTEPMKK (UniProt Q9NWV8) | -0.0728 | -0.794
AVL9_Q8NBF6_409_GYLCLPYMALQQHHLLSDVTVR (UniProt Q8NBF6) | 0.0492 | 0.116
BRAF_P15056_696_LMAECLK (UniProt P15056) | 0.0304 | 0.0117
BCKDHB_P21953_299_LGVSCEVIDLR (UniProt P21953) | -0.0102 | -0.0302
BMS1_Q14692_757_FLVEAPHDWDLEEVMNSIRDCFVTGK (UniProt Q14692) | 0.0114 | -0.129
BAG1_Q99933_330_VQAFLAECDTVEQNICQETER (UniProt Q99933) | -0.213 | 0.363
BCAT2_O15382_342_EVFGSGTACQVCPVHR (UniProt O15382) | -0.0334 | -0.296
BCLAF1_Q9NYF8_688_CDSADLR (UniProt Q9NYF8) | -0.19 | -0.328
BIRC6_Q9NR09_1293_GCDLLQEVSVTIRR (UniProt Q9NR09) | 0.00797 | -0.251
BIRC6_Q9NR09_4601_CDEERLDIMK (UniProt Q9NR09) | 0.0642 | -0.132
BCKDHA_P12694_178_DYPLELFMAQCYGNISDLGK (UniProt P12694) | -0.0388 | -0.261
BAZ1A_Q9NRL2_1177_GHHTYCVRPK (UniProt Q9NRL2) | 0.167 | -0.00209
B3GALT6_Q96L58_271_GCSNQYLVTHK (UniProt Q96L58) | -0.144 | 0.0773
BARGIN_Q6ZT62_631_CGMTTVLTLTGVSR (UniProt Q6ZT62) | 0.0702 | -0.0108
BOP1_Q14137_532_ICHGKPVTQVTWHGR (UniProt Q14137) | -0.0256 | 0.63
BAZ1B_Q9UIG0_1006_ELDELLNCLHPQGIR (UniProt Q9UIG0) | 0.082 | 0.178
AURKB_Q96GD4_191_TATIMEELADALMYCHGKK (UniProt Q96GD4) | 0.0441 | -0.459
BPTF_Q12830_506_VQLAELIDCLDK (UniProt Q12830) | 0.0717 | 0.151
BCKDK_O14874_222_MLATHHLALHEDKPDFVGIICTR (UniProt O14874) | 0.108 | 0.361
ATXN2L_Q8WWM7_135_MLHFLTAVVGSTCDVK (UniProt Q8WWM7) | -0.0379 | 0.1
BAZ1A_Q9NRL2_537_SALSAVASLAAAWPQLHQGCSLK (UniProt Q9NRL2) | -0.118 | -0.147
